PubChem BioAssay AID1671195 | Yale University | 2021

Purpose: 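Regulators of LDL receptor activity judged by labelled LDL uptake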 (primary screen)
System: human Huh7 hepatoma cells
Reagent: siRNA pool against human genes, 18 nM
Timing: about 2 to 2.5 days of knockdown, then 8 h LDL uptake
Treatment: DiI-labelled LDL at 30 µg/ml for 8 h, in lipoprotein-deficient serum medium
Measurement: 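Per-cell DiI-LDL intensity by automated imaging; well means scaled to the plate median and given as a robust z-score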
Reading the numbers: robust z-score: higher = more LDL uptake after knockdown
Active means: 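a gene counts as active if at least two replicate z-scores exceed ±2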
Shown is an unselected part of about 22,000 reagents. About 1,510 of them (6.9%) count as active. 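Active includes knockdowns raising or lowering LDL uptake; positive z-scores mean more uptake, negative mean less.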 The numbers tell different reagents against one gene apart.

gene symbol	pool no.	robust z-score, replicate 1	robust z-score, replicate 2	robust z-score, replicate 3	call
MYLK3	1	0.0808	0.304	0.35	inactive
MGAT5	1	-1.27	-1.48	-1.95	inactive
LOC388684 (retired record)	1	0.24	-0.0199	-0.379	inactive
PLEKHO1	1	-0.973	0.508	-0.501	inactive
FKBP5	1	-0.253	-0.0755	-0.473	inactive
PHTF2	1	0.415	0.465	1.03	inactive
ZNF70	1	-1.8	-1.11	-1.34	inactive
FBXO8	1	1.31	2.58	3.04	active
CATSPERE	1	7.8	8.84	7.01	active
PPIA	1	0.184	1.77	-0.251	inactive
LOC338756 (retired record)	1	0.189	0.0141	-0.131	inactive
FICD	1	0.0968	-0.182	-0.764	inactive
CD300C	1	0.731	0.899	-0.0945	inactive
CBY2	1	-0.322	-0.686	-0.0105	inactive
CHST5	1	-0.864	-0.864	-1.1	inactive
FKRP	1	-0.578	-0.103	-0.639	inactive
CTPS2	1	1.53	-0.157	-0.322	inactive
RPL5	1	-0.921	-0.601	-1.45	inactive
RPSAP28	1	-0.41	-0.372	0.106	inactive
CCDC148	1	1.03	2.51	1.76	inactive
VWA5A	1	-0.333	-0.169	0.121	inactive
RASL11A	1	0.36	0.467	0.445	inactive
LOC442368 (retired record)	1	-2.46	-2.83	-2.18	active
SACK1B	1	-1.06	-1.19	-0.837	inactive
ZFPL1	1	-0.355	-0.0686	-0.157	inactive
CCDC8	1	0.394	-0.489	0.679	inactive
ODC1	1	-1.62	-1.47	-1.3	inactive
ZSCAN21	1	0.047	-0.395	1.26	inactive
KLHDC7A	1	0.748	1.1	1.51	inactive
CFAP74	1	0.278	0.158	0.505	inactive
CFAP74	2	-0.516	-0.643	-0.837	inactive
CPEB4	1	-0.827	-0.972	-0.831	inactive
LOC391553 (retired record)	1	-0.817	-1.09	-1.28	inactive
CXCL12	1	-0.8	-1.62	-1.88	inactive
SPO11	1	-1.65	-1.88	-1.52	inactive
GLCE	1	-0.0622	0.654	-0.792	inactive
ETFBKMT	1	-0.194	0.0468	-0.268	inactive
PTPRB	1	-0.0232	0.0347	-0.659	inactive
LINC00311	1	0.553	0.0706	0.639	inactive
HACD1	1	1.44	0.383	1.62	inactive
HOXD12	1	0.534	0.065	0.619	inactive
CC2D2A	1	-1.47	-1.07	1.01	inactive
PLOD1	1	0.889	0.883	0.853	inactive
ACRV1	1	0.603	-0.571	-0.468	inactive
PIWIL2	1	-0.509	0.271	-0.803	inactive
FBP1	1	1.63	1.04	1.9	inactive

Ordered by “robust z-score, replicate 1” (ascending): 7 of the entries above
gene symbol	pool no.	robust z-score, replicate 1	robust z-score, replicate 2	robust z-score, replicate 3	call
ZNF70	1	-1.8	-1.11	-1.34	inactive
MGAT5	1	-1.27	-1.48	-1.95	inactive
PLEKHO1	1	-0.973	0.508	-0.501	inactive
FKBP5	1	-0.253	-0.0755	-0.473	inactive
MYLK3	1	0.0808	0.304	0.35	inactive
LOC388684 (retired record)	1	0.24	-0.0199	-0.379	inactive
PHTF2	1	0.415	0.465	1.03	inactive
